Assay results: patent US20190248902A1
No constants are given. Whether binding was seen depends on the method and setting. Binding seen in cells or lysates may run through a third protein. A result given as binding can be weak or reduced; the word gives no strength. Where a sequence is shown, tags or fusion partners need not be part of it.

Protein sequences, listed by entry. Tags and fused reporters are not part of them. Lines headed by an entry give the natural chain unless they say otherwise; changes in a name come on top.
UniProt P07307: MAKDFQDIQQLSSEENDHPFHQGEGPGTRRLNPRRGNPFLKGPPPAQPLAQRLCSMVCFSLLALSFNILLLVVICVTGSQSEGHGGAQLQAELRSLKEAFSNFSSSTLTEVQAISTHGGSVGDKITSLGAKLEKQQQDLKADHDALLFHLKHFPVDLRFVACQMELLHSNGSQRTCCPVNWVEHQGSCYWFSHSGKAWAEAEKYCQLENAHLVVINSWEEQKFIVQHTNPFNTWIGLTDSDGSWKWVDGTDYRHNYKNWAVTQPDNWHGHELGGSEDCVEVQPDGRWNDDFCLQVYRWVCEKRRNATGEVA

Molecular target: T1, huASGR-1 (64-291) ECD with C-terminal 6xHis tag (human) (UniProt P07306)
T1 sequence: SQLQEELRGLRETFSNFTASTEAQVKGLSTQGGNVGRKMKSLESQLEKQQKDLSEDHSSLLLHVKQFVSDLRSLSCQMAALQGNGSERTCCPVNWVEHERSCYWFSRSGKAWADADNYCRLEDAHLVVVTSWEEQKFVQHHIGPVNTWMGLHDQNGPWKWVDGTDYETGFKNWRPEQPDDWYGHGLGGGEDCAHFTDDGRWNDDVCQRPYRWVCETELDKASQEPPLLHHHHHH
Test: conditioned media pre-incubated together; co-purified on Ni-Excel through the His tag of ASGR-1, then SEC

binding: binds
Substance: huASGR-2 (61-287) ECD without 6xHis tag (from UniProt P07307) (receptor)
